Measurements published in patent publication US20230203127A1.

B1: … (SEQ ID NO: 252) (peptide)
peptide: SLMEKNQSL
B2: … (SEQ ID NO: 247) (peptide)
peptide: NLLIDDKGTIKL
B3: … (SEQ ID NO: 229) (peptide)
peptide: YLYELEHAL
B4: … (SEQ ID NO: 195) (peptide)
peptide: VIIQNLPAL
B5: … (SEQ ID NO: 220) (peptide)
peptide: ALSELERVL
B6: … (SEQ ID NO: 211) (peptide)
peptide: LLTTVLINA
B7: … (SEQ ID NO: 193) (peptide)
peptide: ALFHMNILL
B8: … (SEQ ID NO: 241) (peptide)
peptide: KQFEGTVEI
B9: … (SEQ ID NO: 244) (peptide)
peptide: NVAEIVIHI
B10: … (SEQ ID NO: 194) (peptide)
peptide: KLLEEVQLL
B11: … (SEQ ID NO: 198) (peptide)
peptide: ILTNKVVSV
B12: … (SEQ ID NO: 219) (peptide)
peptide: GVVPTIQKV
B13: … (SEQ ID NO: 222) (peptide)
peptide: LLTGVFAQL
B14: … (SEQ ID NO: 263) (peptide)
peptide: SIIEYLPTL
B15: … (SEQ ID NO: 260) (peptide)
peptide: ALNESLVEC
B16: … (SEQ ID NO: 217) (peptide)
peptide: LLWPSSVPA
B17: … (SEQ ID NO: 203) (peptide)
peptide: FLFVDPELV
B18: … (SEQ ID NO: 224) (peptide)
peptide: LLFDWSGTGRADA
B19: … (SEQ ID NO: 228) (peptide)
peptide: SLLELDGINLRL
B20: … (SEQ ID NO: 257) (peptide)
peptide: KLIDHQGLYL
B21: … (SEQ ID NO: 213) (peptide)
peptide: ILAVDGVLSV
B22: … (SEQ ID NO: 190) (peptide)
peptide: SLSTELFKV
B23: … (SEQ ID NO: 258) (peptide)
peptide: QLVQRVASV
B24: … (SEQ ID NO: 199) (peptide)
peptide: SVADLAHVL
B25: … (SEQ ID NO: 254) (peptide)
peptide: ALGDKFLLRV
B26: … (SEQ ID NO: 236) (peptide)
peptide: KMSELQTYV
B27: … (SEQ ID NO: 253) (peptide)
peptide: KLLAVIHEL
B28: … (SEQ ID NO: 262) (peptide)
peptide: LLLEAVWHL
B29: … (SEQ ID NO: 249) (peptide)
peptide: YLYQILQGI
B30: … (SEQ ID NO: 216) (peptide)
peptide: ALSTVTPRI
B31: … (SEQ ID NO: 264) (peptide)
peptide: TLHDQVHLL
B32: … (SEQ ID NO: 242) (peptide)
peptide: KLQEEIPVL
B33: … (SEQ ID NO: 265) (peptide)
peptide: FLLDKPQDLSI
B34: … (SEQ ID NO: 231) (peptide)
peptide: LLDDIFIRL
B35: … (SEQ ID NO: 21) (peptide)
peptide: YLMDDFSSL
B36: … (SEQ ID NO: 226) (peptide)
peptide: SLAGNLQEL
B37: … (SEQ ID NO: 246) (peptide)
peptide: ALAGIVTNV
B38: … (SEQ ID NO: 223) (peptide)
peptide: ALHPVQFYL
B39: … (SEQ ID NO: 23) (peptide)
peptide: ALLSPLSLA
B40: … (SEQ ID NO: 230) (peptide)
peptide: KLLNMIFSI
B41: … (SEQ ID NO: 261) (peptide)
peptide: GLAALAVHL
B42: … (SEQ ID NO: 188) (peptide)
peptide: VLGEEQEGV
B43: … (SEQ ID NO: 24) (peptide)
peptide: KVWSDVTPL
B44: … (SEQ ID NO: 245) (peptide)
peptide: ALLEEEEGV
B45: … (SEQ ID NO: 256) (peptide)
peptide: FLNDIFERI
B46: … (SEQ ID NO: 251) (peptide)
peptide: LLWGNLPEI
B47: … (SEQ ID NO: 3) (peptide)
peptide: RVIDDSLVVGV
B48: … (SEQ ID NO: 215) (peptide)
peptide: QIADIVTSV
B49: … (SEQ ID NO: 192) (peptide)
peptide: TLLPSSGLVTL
B50: … (SEQ ID NO: 259) (peptide)
peptide: GPGIFPPPPPQP
B51: … (SEQ ID NO: 22) (peptide)
peptide: LMYPYIYHV
B52: … (SEQ ID NO: 243) (peptide)
peptide: GLAEFQENV
B53: … (SEQ ID NO: 207) (peptide)
peptide: KLFETVEEL
B54: … (SEQ ID NO: 200) (peptide)
peptide: IMPTFDLTKV
B55: … (SEQ ID NO: 248) (peptide)
peptide: VLMQDSRLYL
B56: … (SEQ ID NO: 234) (peptide)
peptide: VLLNEILEQV
B57: … (SEQ ID NO: 233) (peptide)
peptide: SLFESLEYL
B58: … (SEQ ID NO: 206) (peptide)
peptide: GLDAFRIFL
B59: … (SEQ ID NO: 237) (peptide)
peptide: ALLEQTGDMSL
B60: … (SEQ ID NO: 212) (peptide)
peptide: MTLSEIHAV
B61: … (SEQ ID NO: 239) (peptide)
peptide: VIIKGLEEITV
B62: … (SEQ ID NO: 250) (peptide)
peptide: LMQDSRLYL
B63: … (SEQ ID NO: 26) (peptide)
peptide: VLDGKVAVV
B64: … (SEQ ID NO: 225) (peptide)
peptide: FLPQPVPLSV
B65: … (SEQ ID NO: 20) (peptide)
peptide: ALVEKGEFAL
B66: … (SEQ ID NO: 204) (peptide)
peptide: SEWGSPHAAVP
B67: … (SEQ ID NO: 210) (peptide)
peptide: GLAGDNIYL
B68: … (SEQ ID NO: 227) (peptide)
peptide: SEMEELPSV
B69: … (SEQ ID NO: 221) (peptide)
peptide: IMLNSVEEI
B70: … (SEQ ID NO: 208) (peptide)
peptide: HLNNDRNPL
B71: … (SEQ ID NO: 255) (peptide)
peptide: FLMKNSDLYGA
B72: … (SEQ ID NO: 214) (peptide)
peptide: ALFETLIQL
B73: … (SEQ ID NO: 238) (peptide)
peptide: HLQEKLQSL
B74: … (SEQ ID NO: 191) (peptide)
peptide: AAIEIFEKV
B75: … (SEQ ID NO: 235) (peptide)
peptide: SLLNQPKAV
B76: … (SEQ ID NO: 25) (peptide)
peptide: LLWGHPRVALA

biological target: HLA-A*02:01 (human); assay: UV peptide-exchange ELISA, exchange yield grade

binding	Binder
binds	B1
binds	B2
binds	B3
binds	B4
binds	B5
binds	B6
binds	B7
binds	B8
binds	B9
binds	B10
binds	B11
binds	B12
binds	B13
binds	B14
binds	B15
binds	B16
binds	B17
binds	B18
binds	B19
binds	B20
binds	B21
binds	B22
binds	B23
binds	B24
binds	B25
binds	B26

binding	Binder
binds	B27
binds	B28
binds	B29
binds	B30
binds	B31
binds	B32
binds	B33
binds	B34
binds	B35
binds	B36
binds	B37
binds	B38
binds	B39
binds	B40
binds	B41
binds	B42
binds	B43
binds	B44
binds	B45
binds	B46
binds	B47
binds	B48
binds	B49
binds	B50
binds	B51
binds	B52

binding	Binder
binds	B53
binds	B54
binds	B55
binds	B56
binds	B57
binds	B58
binds	B59
binds	B60
binds	B61
binds	B62
binds	B63
binds	B64
binds	B65
binds	B66
binds	B67
binds	B68
binds	B69
binds	B70
binds	B71
binds	B72
binds	B73
binds	B74
binds	B75
binds	B76

No constants are given. Whether binding was seen depends on the method and setting. Binding calls can cover weak binding; strength is not graded here.
